Counter-ions that a name gives are not always drawn. The list shows a part of the results. Repeats in this data set agree poorly, so a single value says little.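 A first-round screen of about ten thousand compounds sought those raising reporter output, using human embryonic kidney cells briefly transfected with a plasmid carrying a Renilla luciferase gene driven by the HSV-TK promoter.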

The first assay relates to HEK 293FT. As to the kind of experiment: log relative Renilla luciferase luminescence (reporter expression vs reference, reference not stated) (log (base not stated)); higher = higher recombinant reporter expression. As to conditions: 10 µM; time after transfection 48 h.
Regarding `C[C@]12CC[C@H](O)CC1=CC[C@@H]1[C@@H]2CC[C@]2(C)C(=O)CC[C@@H]12`, the log was -0.983.
Still for that read-out and setting: to `CCOC(=O)C1(c2ccccc2)CCN(CCC(C#N)(c2ccccc2)c2ccccc2)CC1` belongs -0.327; to `COc1ccc2[nH]cc(CCN)c2c1` [5-Methoxytryptamine], -1.05; to `CS(=O)(=O)Nc1ccc(Cc2noc(-c3ccc4[nH]cc(CCN)c4c3)n2)cc1`, 0.0898.
For the compound `CC(=O)O[C@H]1C[C@@H]2CC[C@@H]3[C@H](CC[C@@]4(C)[C@H]3C[C@H]([N+]3(C)CCCCC3)[C@@H]4OC(C)=O)[C@@]2(C)C[C@@H]1[N+]1(C)CCCCC1` [Pancuronium], the log amounted to 0.0946.
Take `NC1=NC(=O)C(c2ccccc2)O1` (configuration not stated) [Pemoline]: the log is -0.0803.
Still for that read-out and setting: the result for `COc1ccc(CCN)cc1OC` [Homoveratrylamine] reads 0.0264; that for `C[C@]12CC[C@H]3[C@@H](CCC4=CC(=O)CC[C@@H]43)[C@@H]1CC[C@@H]2O` [19-Nortestosterone], -1.24.
Turning to `CNC1CC(c2ccc(Cl)c(Cl)c2)c2ccccc21` (configuration not stated) [Indatraline], the log amounted to 0.07.
The same measure, in the same setting: the result for `Oc1ccc2c3c1O[C@H]1[C@@H](O)CC[C@@]4(O)[C@@H](C2)N(CC2CCC2)CC[C@]314` [Nalbuphine] reads 0.0535; that for `N=C(NCc1ccc(Cl)cc1)SCCCc1c[nH]cn1` [Clobenpropit], -0.685; that for `CCCCC/C=C\C/C=C\C/C=C\C/C=C\CCCC(=O)Nc1ccc(O)cc1`, 0.131.
Still for that read-out and setting: to `c1ccc2c(c1)Nc1ccccc1S2` belongs 0.0514; to `C[C@H]1CCC[C@H](O)CCCCCc2cc(O)cc(O)c2C(=O)O1`, -0.0897; to `COc1cc(N)c(Cl)cc1C(=O)NC1CN2CCC1CC2` (configuration not stated) [Zacopride], 0.165.
Turning to `NCCc1ccccn1`, the log was -0.144.
Still for that read-out and setting: the result for `COc1ccc2[nH]cc(C3=CCNCC3)c2c1` reads 0.197.

The subject of a further assay is HEK 293FT. Described as above. As to conditions: 10 µM; time after transfection 48 h. The source holds these as a separate data set.
Turning to `O=C(O)c1nn(Cc2ccc(Cl)cc2Cl)c2ccccc12` [Lonidamine], the log came to 0.0127.
The same measure, in the same setting: the result for `N#Cc1ccc(N2CCN(C(=O)COc3ccc4[nH]cc(CCN)c4c3)CC2)cc1` [Donitriptan hydrochloride] reads 0.0738; that for `CN1C2CCC1CC(OC(c1ccccc1)c1ccc(Cl)cc1)C2` (configuration not stated), 0.00426; that for `CN(C)CCN(C)CCc1ccc(Cl)c(Cl)c1` [BD 1047 dihydrobromide], 0.0906.
The same measure, in the same setting: the result for `NC(C(=O)O)c1nn[nH]n1` (racemic) [(RS)-(Tetrazol-5-yl)glycine] reads 0.00213; that for `c1ccc(C2CNCc3ccccc32)cc1` (configuration not stated) [4-Phenyl-1,2,3,4-tetrahydroisoquinoline hydrochloride], -0.0536; that for `CS(=O)(=O)Nc1ccc(Cc2noc(-c3ccc4[nH]cc(CCN)c4c3)n2)cc1`, 0.00106.
On the same count and under the same terms, the result for `NCCc1c[nH]c2ccc(C(N)=O)cc12` [5-Carboxamidotryptamine maleate] reads 0.142; that for `COc1cc2c(cc1OC)C1CC(=O)C(CC(C)C)CN1CC2` (configuration not stated) [Tetrabenazine], -0.0824; that for `Cc1ccc(C[N+](C)(C)C)o1` [5-Methylfurmethiodide], 0.0168.
As for `NC(N)=Nc1ccc2[nH]c3c(c2c1)C[C@@]1(O)[C@H]2Cc4ccc(O)c5c4[C@@]1(CCN2CC1CC1)[C@H]3O5` [GNTI dihydrochloride], the log is -0.0464.
On to `CCCCC/C=C\C/C=C\C/C=C\C/C=C\CCCC(=O)Nc1ccc(O)cc1`, for which the log came to 0.0975.
Turning to `CN(C(=O)Cc1ccccc1)C(CN1CCCC1)c1ccccc1` (configuration not stated) [N-MPPP Hydrochloride], the log came to 0.0845.
Still for that read-out and setting: the result for `Cc1ncsc1CCCl` [Chlormethiazole hydrochloride] reads -0.135.
With `CC(C)(C)NCC(O)COc1cccc2[nH]c(C#N)cc12` (configuration not stated) [Cyanopindolol hemifumarate], the log was -0.00867.
Still for that read-out and setting: the result for `N=C(NCc1ccc(Cl)cc1)SCCCc1c[nH]cn1` [Clobenpropit dihydrobromide] reads 0.0199; that for `O=C1NCN(c2ccccc2)C12CCN(CC1COc3ccccc3O1)CC2` (configuration not stated) [Spiroxatrine], 0.0389; that for `COC(=O)/C=C/C(=O)N[C@@H]1CC[C@@]2(O)[C@H]3Cc4ccc(O)c5c4[C@@]2(CCN3CC2CC2)[C@H]1O5` [β-Funaltrexamine hydrochloride], -0.111.
On the same count and under the same terms, the result for `CN1CCN(c2ccc3ccccc3n2)CC1` [N-Methylquipazine dimaleate] reads -0.00108; that for `NCC(O)c1ccc(O)cc1` (configuration not stated) [Octopamine hydrochloride], 0.0863.
On the same count and under the same terms, the result for `CC(N)Cc1c[nH]c2ccc(OCc3cccs3)cc12` (configuration not stated) [BW 723C86 hydrochloride] reads 0.818.
For `Cc1[nH]c2ccc(Cl)cc2c1C1=CCNCC1`, the log is -0.00193.
Still for that read-out and setting: the result for `FC(F)(F)c1cccc(C2=CCN(CCc3ccc4ccccc4c3)CC2)c1` [Xaliproden hydrochloride] reads -0.247.
On the same count and under the same terms, to `OC1CCCCC1N1CCC(c2ccccc2)CC1` (racemic) [(±)-Vesamicol hydrochloride] belongs -0.0186; to `COc1ccc2[nH]cc(C3=CCNCC3)c2c1`, -0.0142.

These data come from the supplement of paper PMC7024190.
